Assay results published in patent CN114230662A.
No constants are given. Whether binding was seen depends on the method and setting. Some entries that bind do so weakly or less than the wild type. Each block holds one binder with its values, some of them ahead of it.

Protein sequences, listed by entry. Tags and fused reporters are not part of them. Residues count along the entry.
UniProt Q08722, residues 19-323: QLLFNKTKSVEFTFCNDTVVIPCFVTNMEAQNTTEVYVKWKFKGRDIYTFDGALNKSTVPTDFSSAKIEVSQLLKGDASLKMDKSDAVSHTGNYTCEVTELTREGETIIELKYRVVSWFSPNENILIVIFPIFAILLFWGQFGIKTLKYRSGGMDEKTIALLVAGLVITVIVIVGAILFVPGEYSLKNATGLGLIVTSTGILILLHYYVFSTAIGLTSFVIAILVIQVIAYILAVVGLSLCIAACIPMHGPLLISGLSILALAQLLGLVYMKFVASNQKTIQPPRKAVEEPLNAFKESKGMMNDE

Tests used:
[1] = molecular target: human CD47 on cells (Raji-luc, CCRF-CEM, Jurkat, CHO/K1-hCD47) (human) (UniProt Q08722); assay: flow cytometry on Raji-luc and Jurkat cells
[2] = molecular target: human CD47 on cells (Raji-luc, CCRF-CEM, Jurkat, CHO/K1-hCD47) (human) (UniProt Q08722); assay: flow cytometry on CHO/K1-hCD47 cells

binding [1]: binds
B1: AB12W4 (antibody, human IgG4 S228P, kappa, V domains shown)
VH: QIQLVQSGAEVVKPGASVKISCKASGYTFTDYYINWVKQAPGQRLEWIGWIYPGSGNTKHNQKFQGKATLTVDTSSSTAYMELSSLRSEDTAVYFCARRGTYYYGSSSDGFPYWGQGTLVTVSS
VL: QIVLTQSPATMSASPGERVTISCRASSSVYYMYWYQQKPGQSPRPWIYRTSNLATGVPARFSGSGSGTSYSLTISSMEPEDFATYYCQQYHSYPLTFGQGTKLEIKR

binding [2]: binds | binding [1]: binds
B2: AB12W3 (antibody, human IgG4 S228P, kappa, V domains shown)
VH: EVQLVQSGAEVVKPGATVKISCKASGYSFTDYFMTWMKQSPGKSLEWIGRINPYNGETFYNQKFQGKATLTVDKSSTTAHMELSSLRSEDSAVYYCGRGGTAGTDYWGQGTLLTVSS
VL: DVLLTQSPLSLPVTLGQPASISCRSSQSVVRSNGNTYLEWYLQKPGQSPRLLINKVSRRFSGVPDRFSGSGSGSEFTLKISRVEAEDVGIYYCFQGSHVPYTFGQGTKLEIKR
